Laboratory results from patent US6838477B2, “Lactacystin analogs” (President and Fellows of Harvard College, priority 1995, dated 2005).
For at least one compound, name, drawing or mass did not settle the structure.

System: Neuro 2A neuroblastoma cells; MG-63 osteosarcoma cells
Test: Biological activity: neurite outgrowth in Neuro 2A cells and inhibition of cell cycle progression in MG-63 cells
Assay type: cell-based
Conditions: ability to induce neurite outgrowth in Neuro 2A cells and to inhibit cell cycle progression in MG-63 cells; + active, − inactive

## CC(C)[C@H](O)[C@@]12NC(=O)[C@H](C)[C@@H]1OC2=O [β-Lactone, clasto-lactacystin β-lactone]
  Biological activity of compound: +
